In all, about 360,000 compounds went through this assay and about 7,500 (2.1%) were called active. The inconclusive results got no clear call from the source; some entries with a clear call stand among them for comparison. The call rests on the fitted dose curve; in most records, active means well fitted inhibition curve with a large enough effect; inconclusive means small, poorly fitted or top-dose-only effect, or effect the other way; inactive means flat fitted curve, though single readings scatter. Where the call is inconclusive, the potency comes from a doubtful curve fit.
experiment: Nrf2 qHTS screen for inhibitors; conditions: A549 ARE-Fluc reporter, luciferase luminescence, 18-24 h; activity change, negative = inhibition: at 46 µM (top of the series); further: nearly all actives have a fitted effect of over 60% in size
How it was run: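 Cells were seeded and rested 2 h, then exposed to compounds for 18-24 h. CellTiter-Fluor was read first as a viability measure. BugLite was added 15 min before the final luminescent read of ARE-luciferase activity in A549 cells.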
On the % scale 0 is the no-effect control and ±100 the full control effect; potency means the concentration at half of the fitted maximal effect.

With `CC(C)(C)c1ccc(/C=C/C(=O)O)s1` as the compound, how does the Potency read?
The Potency was inconclusive: 23.1 µM [activator, single point].

Which Potency does the source give for `CCc1ccc(NC(=O)N2CCc3ccccc3C2)cc1` here?
Its Potency is inconclusive: 1.16 µM [activator, full curve].

With `O=C(N[C@H]1/C=C\[C@@H](O)CCCC1)OCc1ccccc1` as the compound, how does the Potency read?
The Potency was inconclusive: 1.46 µM [activator, full curve].

For `O=[N+]([O-])c1cc(C(F)(F)F)ccc1NCCNC(=S)Nc1ccc(Cl)cc1`, which Potency is on record?
Its Potency is inconclusive: 16.4 µM [falling, single point].

Which Potency does the source give for `COc1ccc(C(=O)Cc2ccccc2C(=O)O)cc1` here?
Its Potency is inconclusive: 16.4 µM [activator, partial curve].

Which Potency does the source give for `Cc1cc(=O)oc2cc(NC(=O)Cc3ccccc3[N+](=O)[O-])ccc12` here?
The Potency was inconclusive: 1.64 µM [falling, full curve, poor fit].

Which Potency does the source give for `CCOC(=O)c1ccc(NC(=S)N(CCCN2CCN(CC)CC2)Cc2ccco2)cc1` here?
The Potency was inconclusive: 8.2 µM [falling, partial curve].

For `COc1ccc(-c2n[nH]c3c2C(c2ccc(O)cc2)N(c2ccc(Br)cc2)C3=O)cc1` (centres undefined), which Potency is on record?
The Potency was inconclusive: 18.4 µM [falling, single point].

Which “activity change, negative = inhibition” value does the source give for `COc1ccc(C2=NN(C(=O)c3cccs3)C(c3ccc(OC)cc3)C2)cc1` (centres undefined) here?
The value was inactive: -25.2%.

With `c1ccc(OCCCc2nc(-c3ccncc3)no2)cc1` as the compound, how does the Potency read?
The Potency was inconclusive: 23.1 µM [falling, single point].

For `O=S(=O)(c1cc(F)ccc1F)N1CCN(c2ncnc3ccccc23)CC1`, which Potency is on record?
The Potency was active: 11.6 µM.

Which Potency does the source give for `O=C(CCS(=O)(=O)c1ccccc1)NC12CC3CC(CC(C3)C1)C2` here?
Its Potency is inconclusive: 0.92 µM [activator, full curve].

With `CN(CCc1ccccc1)C(=O)c1ccc(NC(=O)Cc2ccc(NC(=O)C3CCN(S(=O)(=O)c4cccc([N+](=O)[O-])c4)CC3)cc2)cc1` as the compound, how does the Potency read?
Its Potency is inconclusive: 8.2 µM [falling, partial curve].

With `N#Cc1cn(-c2ccccc2)nc1-c1cc2ccccc2oc1=O` as the compound, how does the Potency read?
Its Potency is inconclusive: 9.2 µM [activator, partial curve, poor fit].

Which Potency does the source give for `Cc1ccc(S(=O)(=O)N2CCN(c3ccc(C(F)(F)F)cc3[N+](=O)[O-])CC2)cc1` here?
Its Potency is active: 16.4 µM.

For `CCc1nc(SCC(=O)c2c[nH]c3ccccc23)n[nH]1`, which Potency is on record?
Its Potency is inconclusive: 18.4 µM [activator, partial curve, poor fit].

With `CCN(CC)C(=O)CSc1nc(COc2ccccc2)nc2ccccc12` as the compound, how does the Potency read?
The Potency was inconclusive: 23.1 µM [falling, single point].

With `Cc1noc(C)c1S(=O)(=O)N1CCC(C(=O)N2CCN(c3ccc(Cl)cc3)CC2)CC1` as the compound, how does the Potency read?
Its Potency is inconclusive: 10.3 µM [falling, partial curve].

For `CC(C(=O)N(C)c1ccccc1)N1CCN(C(=O)c2ccccc2)CC1` (centres undefined), which Potency is on record?
The Potency was inconclusive: 1.84 µM [activator, partial curve, poor fit].

Which Potency does the source give for `Cc1nn(-c2ccccc2)c(Cl)c1C(=O)N(C)CC(=O)Nc1cccc(F)c1` here?
Its Potency is inconclusive: 20.6 µM [falling, partial curve, poor fit].

Which “activity change, negative = inhibition” value does the source give for `O=S(=O)(c1cccc(Br)c1)N1CCN(c2nc(-c3cccs3)nc3ccccc23)CC1` here?
The value was inactive: -2.11%.

For `CCC1CCC(NC(=O)Nc2cccc(OC)c2)CC1` (centres undefined), which Potency is on record?
The Potency was inconclusive: 16.4 µM [activator, partial curve].

With `O=C(/C=C/c1ccccc1Cl)NC(=S)Nc1ccccc1C(=O)NC1CCCCC1` as the compound, how does the Potency read?
Its Potency is inconclusive: 3.26 µM [activator, full curve, poor fit].

With `Cc1cc2ccccc2n1CCNC(=O)c1cccc(Cl)c1` as the compound, how does the Potency read?
The Potency was inconclusive: 29.1 µM [falling, single point].

For `COc1ccc(-c2noc(-c3cccc(OC)c3OC)n2)cc1OC`, which Potency is on record?
Its Potency is inconclusive: 18.4 µM [activator, partial curve].

Which Potency does the source give for `CC(C)(C)C(=O)NC(=S)Nc1sc2c(c1C(N)=O)CCC2` here?
The Potency was inconclusive: 20.6 µM [activator, partial curve].

For `CN(C)CCCN1C(=O)c2cccc3c(Br)ccc(c23)C1=O`, which Potency is on record?
Its Potency is inconclusive: 32.6 µM [falling, single point].

For `CCC1CCCCN1C(=O)Cn1c(=O)n(CCC(=O)NCc2ccco2)c(=O)c2sccc21` (centres undefined), which Potency is on record?
The Potency was inconclusive: 2.91 µM [falling, partial curve, poor fit].

For `O=C(Cc1ccccc1)Nc1ccc(N2CCCCC2)cc1`, which Potency is on record?
The Potency was inconclusive: 6.51 µM [activator, single point].

For `Cc1nc(N2CCN(c3ccccc3)CC2)nc2c1C(=O)CCC2`, which Potency is on record?
The Potency was inconclusive: 5.8 µM [falling, partial curve].

Which Potency does the source give for `O=C(Nc1ccc(N2CCCCC2)cc1)c1cncc(Br)c1` here?
The Potency was inconclusive: 1.3 µM [activator, full curve, poor fit].

For `CCOC(=O)C(Cc1c[nH]c2ccccc12)NC(=O)COc1ccc(Cl)c(C)c1` (centres undefined), which “activity change, negative = inhibition” value is on record?
The value was inactive: -5.16%.

Which Potency does the source give for `Cc1nc(NCc2ccco2)c2cn[nH]c2n1` here?
The Potency was active: 23.1 µM.

For `O=C(c1ccc(C(F)(F)F)cc1)C1CCCN(C(=O)CCc2ccncc2)C1` (centres undefined), which Potency is on record?
The Potency was inconclusive: 16.4 µM [falling, single point].

Which “activity change, negative = inhibition” value does the source give for `COCCN(C(=O)CCC(=O)Nc1nccs1)C(C(=O)NC(C)(C)C)c1ccc(C)cc1` (centres undefined) here?
Its value is inactive: -8.34%.

For `CCOc1nc(NC(=O)NS(=O)(=O)Oc2ccccc2)nc(-c2ccccc2)n1`, which Potency is on record?
Its Potency is inconclusive: 20.6 µM [activator, partial curve, poor fit].

For `CCOC(=O)N1CCN(C(=O)c2ccc3nc(N4CCCCC4)sc3c2)CC1`, which “activity change, negative = inhibition” value is on record?
Its value is inactive: -4.95%.

With `COc1ccc(C(c2c(O)ccc3ccccc23)N2CCOCC2)c(OC)c1` (centres undefined) as the compound, how does the Potency read?
The Potency was inconclusive: 23.1 µM [activator, partial curve].

Which Potency does the source give for `CCc1c(C)sc(NC(=O)/C=C/C(=O)O)c1C(N)=O` here?
The Potency was inconclusive: 9.2 µM [activator, partial curve].

For `O=C(O)Cn1cc(/C=C2\SC(=O)N(c3ccccc3)C2=O)c2ccccc21`, which Potency is on record?
Its Potency is inconclusive: 0.0065 µM [activator, full curve, poor fit].

With `CCCNc1nc(Nc2ccc(C)c(Cl)c2)c2cnn(C)c2n1` as the compound, how does the Potency read?
The Potency was inconclusive: 23.1 µM [falling, single point].

Which Potency does the source give for `CC(=O)c1ccc(OCC(O)CN2CCN(S(=O)(=O)c3c(C)cc(C)cc3C)CC2)cc1` (centres undefined) here?
The Potency was inconclusive: 32.6 µM [falling, single point].

Which Potency does the source give for `Cc1cc(OCC(=O)Nc2ccncc2)ccc1Br` here?
The Potency was inconclusive: 32.6 µM [falling, single point].

With `CCNC(=O)n1cc(-n2cncn2)c(-c2ccc(Cl)cc2)n1` as the compound, how does the Potency read?
Its Potency is inconclusive: 6.51 µM [activator, full curve, poor fit].

With `C(=N\N=C\c1cccs1)/c1cccs1` as the compound, how does the Potency read?
Its Potency is inconclusive: 4.11 µM [activator, full curve].

Which “activity change, negative = inhibition” value does the source give for `Cc1ccc(C(=O)NNC(=O)Cn2ccc(C(F)(F)F)n2)o1` here?
Its value is inactive: -3.14%.

For `COc1cc(S(=O)(=O)Nc2cc(C)cc(C)c2)ccc1F`, which Potency is on record?
The Potency was inconclusive: 25.9 µM [falling, partial curve, poor fit].

Which Potency does the source give for `COc1ccc(-c2noc(CSc3nnc(-c4ccncc4)n3-c3ccc(C)cc3)n2)cc1` here?
Its Potency is inconclusive: 25.9 µM [falling, single point].

With `O=C(COC(=O)c1ccc(Cl)cc1Cl)Nc1cccc(S(=O)(=O)NC2=NCCC2)c1` as the compound, how does the Potency read?
Its Potency is inconclusive: 7.31 µM [falling, single point].

With `Cc1ccc(NC(=O)c2sc3ncn(CC(=O)N4CCOCC4)c(=O)c3c2C)c(Br)c1` as the compound, how does the Potency read?
Its Potency is inconclusive: 18.4 µM [falling, single point].

Which Potency does the source give for `COc1ccc(OCc2cc(C(=O)NCCCc3ccccc3)no2)c(Cl)c1` here?
Its Potency is inconclusive: 25.9 µM [falling, single point].

Which Potency does the source give for `O=C(NCCOc1ccc(F)cc1)c1ccccc1SCc1ccccc1` here?
The Potency was inconclusive: 32.6 µM [falling, partial curve, poor fit].

Which Potency does the source give for `Cc1oc2cc(O)cc(C)c2c(=O)c1-c1cnn(-c2ccccc2)c1` here?
Its Potency is inconclusive: 18.4 µM [falling, partial curve, poor fit].

Which Potency does the source give for `Cc1nn(-c2ncccn2)c2c1C(=O)CC(C)(C)C2Br` (centres undefined) here?
Its Potency is inconclusive: 20.6 µM [falling, single point].

For `Cc1ccc(NC(=O)CSC(C)c2nc3ccccc3c(=O)[nH]2)cc1` (centres undefined), which Potency is on record?
The Potency was inconclusive: 18.4 µM [activator, single point].

With `Cc1ccc(NC(=O)c2cccc(S(=O)(=O)N3CCCc4ccccc43)c2)nc1` as the compound, how does the Potency read?
Its Potency is active: 10.3 µM.

Which Potency does the source give for `CC(C)Cc1nnc(NC(=O)c2ccc([N+](=O)[O-])cc2)s1` here?
The Potency was inconclusive: 6.51 µM [activator, single point].

With `Cc1nnc(SCc2ccccc2F)n1NCc1cccs1` as the compound, how does the Potency read?
The Potency was inconclusive: 20.6 µM [activator, partial curve, poor fit].

For `CCCn1c(N)c(C(=O)CN(C)CC(=O)Nc2ccccc2CC)c(=O)[nH]c1=O`, which “activity change, negative = inhibition” value is on record?
The value was inactive: -13.9%.

With `O=C(Nc1ccncc1)Nc1ccc(F)cc1` as the compound, how does the “activity change, negative = inhibition” value read?
The value was inactive: 22.6%.

With `Cc1ccc(NC(=O)C2CCCN(c3ncccn3)C2)cc1F` (centres undefined) as the compound, how does the Potency read?
Its Potency is inconclusive: 4.11 µM [activator, partial curve, poor fit].

Which Potency does the source give for `O=C(Nc1c(C(=O)N2CCN(c3ccccn3)CC2)oc2ccccc12)c1cccc([N+](=O)[O-])c1` here?
Its Potency is inconclusive: 5.8 µM [falling, partial curve].

With `CN1CCN(c2ncnc3scc(-c4ccccc4Cl)c23)CC1` as the compound, how does the Potency read?
The Potency was inconclusive: 14.6 µM [falling, partial curve].

Which Potency does the source give for `CCOc1ccccc1NC(=O)c1ccc(S(=O)(=O)N(C)C)cc1` here?
The Potency was inconclusive: 29.1 µM [falling, single point].
